Test results: PubChem BioAssay AID2685 (National Center for Advancing Translational Sciences (NCATS), 2010)
The list shows a part of the results. The main result of the screen is listed elsewhere. These columns were measured beside it and carry no call. Compounds called inactive in the main read-out are mostly missing here. Words in brackets tell the shape of the fitted curve; partial curves, single points and poor fits give uncertain potencies.

Test: qHTS Assay for Lipid Storage Modulators in Drosophila S3 Cells;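 for cell number change: cells counted by Cell Tracker Red CMTPX staining in the red channel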
Conditions: BODIPY lipid droplet fluorescence, 18-24 h; for cell number change: measured here: cell count max response, cells fed with added oleic acid
Method in brief: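 Drosophila S3 cells loaded with oleic acid (400 uM, as added) and compounds at several concentrations; lipid droplets imaged by 488-nm laser-scanning cytometry, 500–530 nm intensity and object ratio to cell channel. Percent activity normalized to 20 uM Triacsin C.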

[1] = measured here: lipid fluorescence (Fed channel) AC50, cells fed with added oleic acid
[2] = measured here: cell number channel AC50, cells fed with added oleic acid

| Compound | cell number change [%] | AC50 [1] | AC50 [2] |
| --- | --- | --- | --- |
| Cc1ccc(NC(=O)c2cc(-c3ccc4c(c3)OCO4)on2)cc1C | -4.17 | 1.16 µM [rising, single point] | – |
| COc1cc(OC)c(C2=NOC(C(=O)Nc3ccc4c(c3)OCO4)C2)cc1Cl (centres undefined) | 22.1 | 0.731 µM [rising, single point] | – |
| O=C(NC1CCCCC1)C(=S)N1CCCC1 | – | 8.2 µM [rising, partial curve] | – |
| O=C(NCCC1=CCCCC1)c1cnccn1 | -4.23 | 1.3 µM [rising, partial curve, poor fit] | – |
| O=C(CC(C(=O)O)c1ccccc1)Nc1ccccc1 (centres undefined) | -22.3 | 0.00517 µM [falling, full curve, poor fit] | – |
| CCOC(=O)c1sc(NC(=O)CN2CCN(c3ccccc3)CC2)nc1C | -10.7 | 29.1 µM [rising, single point] | – |
| COc1ccc(/C=C2\SC(=O)N(CC(=O)NNC(=O)c3ccccc3O)C2=O)cc1 | -8.15 | – | – |
| CSc1nccc(N/N=C/c2ccccc2)n1 | 8.38 | 8.2 µM [falling, single point] | – |
| COc1ccccc1N1CCN(C(=O)c2cc3cc(Br)ccc3oc2=O)CC1 | 14.1 | 6.51 µM [rising, single point] | – |
| c1ccc(Nc2ncnc3c2oc2ccccc23)cc1 | – | 32.6 µM [falling, single point] | 0.58 µM [falling, full curve] |
| CCOC(=O)CSc1snnc1-c1ccccc1 | -17.6 | 0.164 µM [falling, full curve, poor fit] | – |
| Cc1cc(C)c2nc(N)sc2c1 | 42.9 | 10.3 µM [rising, single point] | 29.1 µM [rising, single point] |
| COc1ccc(CC(=O)NC(C)c2nnc(SCC(=O)Nc3nc(C)cs3)n2C)cc1 (centres undefined) | -3.71 | 6.51 µM [rising, single point] | – |
| CCCCn1nnnc1SCC(=O)c1cc(Cl)ccc1OC | 31.8 | – | 29.1 µM [rising, single point] |
| CCOC(=O)c1nc(NNC(=O)c2ccc([N+](=O)[O-])cc2)sc1C | -50.8 | – | 2.91 µM [falling, partial curve, poor fit] |
| O=C(COC(=O)c1ccc(O)cc1O)Nc1ccc(Cl)cn1 | 13.5 | 7.31 µM [rising, partial curve] | – |
| O=C(Oc1cccc(N2C(=O)CCC2=O)c1)C1CC(=O)N(c2ccc(F)cc2)C1 (centres undefined) | -2.28 | – | – |
| O=C(CSc1ccc2ccccc2c1)NCCCN1CCCC1=O | -13.2 | 10.3 µM [falling, single point] | – |
| CC(=O)Nc1ccc(NC(=O)C2CCCN2C(=O)NC2CCCCC2)cc1 (centres undefined) | 11.8 | – | – |
| CNCc1ccc(OCc2ccccc2)c(OC)c1 | -83.8 | 23.1 µM [falling, partial curve] | 16.4 µM [falling, partial curve, poor fit] |
| CC1(C)CNc2cc(N)ccc2S1 | -13.1 | 0.00461 µM [falling, full curve, poor fit] | – |
| O=c1[nH]c(C2CCN(S(=O)(=O)c3ccc4c(c3)OCCO4)CC2)nc2c1nnn2Cc1cccc(F)c1 | 4.17 | – | – |

| Compound | cell number change [%] | AC50 [1] | AC50 [2] |
| --- | --- | --- | --- |
| CCOC(=O)N1CCC(Nc2nc3ccccc3nc2NS(=O)(=O)c2ccc(Cl)cc2)CC1 | – | 1.3 µM [rising, partial curve] | 1.3 µM [rising, partial curve] |
| CCOC(=O)c1[nH]c2ccc(OC)cc2c1NC(=O)CCN1CCC(C)CC1 | 14.9 | – | – |
| Cc1cc(Nc2nc3ccccc3nc2Cl)n(-c2ccccc2)n1 | 30.2 | 18.4 µM [rising, single point] | 0.092 µM [rising, full curve, poor fit] |
| COc1ccc(NC(=O)c2cc(C)no2)cc1Cl | 39.5 | – | 23.1 µM [rising, single point] |
| O=C(NCc1cccnc1)c1cccc(OC2CCN(Cc3ccc(CO)o3)CC2)c1 | 17.9 | – | 0.058 µM [rising, full curve, poor fit] |
| CCc1cc(CN2CCOCC2)c(NC(=O)c2ccccc2)s1 | 1.19 | 6.51 µM [rising, partial curve, poor fit] | – |
| O=C1C2C3C=CC(CO)(O3)C2C(=O)N1c1ccccc1-c1ccccc1 (centres undefined) | -91.1 | 8.2 µM [falling, partial curve] | 8.2 µM [falling, partial curve] |
| Cc1[nH]c2ccccc2c1C(=O)C(C)OC(=O)c1ccc([N+](=O)[O-])o1 (centres undefined) | -69 | – | – |
| COc1ccc(OC)c(NC(=O)c2ccc(CSc3ncccn3)cc2)c1 | 6.23 | – | – |
| CCc1ccccc1NC(=O)c1ccc(-c2csc(C)n2)cc1 | 2.36 | 8.2 µM [rising, partial curve] | – |
| O=C(Nc1ccccc1Cl)N1CCCN(c2nc(-c3ccccc3)ns2)CC1 | 10.4 | 0.116 µM [falling, full curve, poor fit] | – |
| COC(=O)c1cccc(NC(=O)c2onc3c2CCCC3)c1 | 41.2 | – | 20.6 µM [rising, single point] |
| CCCC(=O)NC(=S)Nc1ccc(NC(=O)c2cccs2)cc1 | -19.1 | – | – |
| O=S1(=O)CC=C(CSC(=S)NC2CCS(=O)(=O)C2)C1 (centres undefined) | -23.8 | 9.2 µM [falling, partial curve] | – |
| CC1C2CC(CC1(C)C)N(C(=O)Nc1ccc3nccnc3c1)C2 (centres undefined) | -9.34 | 18.4 µM [rising, single point] | – |
| COc1ccc2[nH]c(=O)c(C(=O)O)cc2c1 | -1.59 | 0.731 µM [falling, single point] | – |
| COc1cc(C(=O)NCc2nnc(SCC(=O)Nc3nc4ccccc4s3)o2)cc(OC)c1OC | -2.59 | 29.1 µM [rising, single point] | – |
| Cc1ccc(-n2c(Cc3cccn3C)nnc2SCC(=O)Nc2nnc(C)s2)cc1 | -28.9 | 9.2 µM [falling, partial curve, poor fit] | – |
| CCCCOC(=O)c1ccc(OC(=O)N2CCOCC2)cc1 | 17.6 | 0.184 µM [rising, full curve, poor fit] | – |
| Nc1nc(N2CCCCC2)nc2ccccc12 | 59.8 | 6.51 µM [rising, single point] | 23.1 µM [rising, single point] |
| O=C(O)c1ccc2c(c1)nnn2C1CCCCC1 | 6.29 | – | – |
| COc1cc2ccccc2cc1C(=O)Nc1ccccc1C | -5.26 | – | – |

| Compound | cell number change [%] | AC50 [1] | AC50 [2] |
| --- | --- | --- | --- |
| CCOC(=O)Cc1csc(NC(=O)CN2C(=O)c3ccccc3C2=O)n1 | 3.27 | – | – |
| N#Cc1ccc(N2C(=O)[C@@H]3C(C(=O)C(c4ccccc4)c4ccccc4)=NN[C@@H]3C2=O)cc1 | 9.41 | 14.6 µM [rising, partial curve, poor fit] | – |
| N#Cc1ccccc1NC(=O)CN1CCN(c2ccccn2)CC1 | -16.7 | – | 0.461 µM [falling, full curve, poor fit] |
| Cc1ccc(C(=O)Nc2cccc(S(=O)(=O)N3CCCCC3)c2)cc1[N+](=O)[O-] | -30.1 | 25.9 µM [falling, single point] | 20.6 µM [falling, single point] |
| CCN(CC)C(=O)Cn1cc(C(=O)C(=O)NCc2cccnc2)c2ccccc21 | 40 | – | 0.82 µM [rising, full curve, poor fit] |
| COc1ccc(C(C)C)cc1S(=O)(=O)Nc1ncn[nH]1 | 17.1 | – | – |
| CCC(C)(C)c1ccc(OC(=O)c2cccnc2Cl)cc1 | 5.41 | – | – |
| O=C(NCc1ccccc1)c1ccc2c(=O)n3c(nc2c1)CCCCC3 | 7.21 | 29.1 µM [falling, single point] | – |
| COC(=O)C1CC(O)CN1C(=O)NC1CCCCC1 (centres undefined) | 10.2 | 25.9 µM [rising, single point] | – |
| O=C(c1cccc(C(F)(F)F)c1)C1CCCN(C(=O)C2CCOCC2)C1 (centres undefined) | – | – | 2.59 µM [rising, partial curve] |
| Cc1cc(C)cc(OCC(=O)NNC(=O)c2cc3ccccc3o2)c1 | 0.481 | 6.51 µM [rising, single point] | – |
| O=C(Nc1ccc2c(c1)OCO2)C1CCN(C(=O)c2cccs2)CC1 | 110 | 1.84 µM [rising, single point] | 18.4 µM [rising, partial curve] |
| O=C(CC1Nc2ccccc2NC1=O)c1ccccc1 (centres undefined) | 76.9 | – | 29.1 µM [rising, single point] |
| O=C(Nc1cccc2c1C(=O)NC2=O)c1ccc(N2C(=O)CCC2=O)cc1 | -23 | 6.51 µM [falling, single point] | – |
| Cc1ccc(NC(=S)N(CCN(C)C)Cc2cccs2)cc1C | 48.2 | 1.46 µM [rising, full curve] | 4.11 µM [rising, full curve] |
| Cc1ccc(C)c2sc(NC(=O)c3nc4ccccc4s3)nc12 | 44.3 | 29.1 µM [rising, single point] | 29.1 µM [rising, single point] |
| CC1(C)Cc2c(sc(NC(=O)C(=O)NCCCN3CCOCC3)c2C(N)=O)CO1 | -7.37 | 0.58 µM [rising, single point] | – |
| CCN(CC)CCNC(=O)C(=O)NCC1OCCN1C(=O)c1ccc2c(c1)OCO2 (centres undefined) | 11.3 | – | – |
| CN1CCN(S(=O)(=O)c2cccc(C(=O)Nc3cc(C(F)(F)F)ccc3N3CCCCC3)c2)CC1 | – | 32.6 µM [rising, single point] | – |
| Cc1ccc2c(c1)C(c1ccc(F)cc1)N(C(=O)c1cc3ccccc3oc1=O)CC(=O)N2 (centres undefined) | -8.4 | – | – |

An excerpt of these results, tab-delimited:
Compound	cell number change [%]	AC50 [1]	AC50 [2]
N#Cc1ccccc1NC(=O)CN1CCN(c2ccccn2)CC1	-16.7	–	0.461 µM [falling, full curve, poor fit]
Cc1ccc(C(=O)Nc2cccc(S(=O)(=O)N3CCCCC3)c2)cc1[N+](=O)[O-]	-30.1	25.9 µM [falling, single point]	20.6 µM [falling, single point]
COc1ccc(C(C)C)cc1S(=O)(=O)Nc1ncn[nH]1	17.1	–	–
CCC(C)(C)c1ccc(OC(=O)c2cccnc2Cl)cc1	5.41	–	–
Cc1ccc(NC(=S)N(CCN(C)C)Cc2cccs2)cc1C	48.2	1.46 µM [rising, full curve]	4.11 µM [rising, full curve]
